Results are given in words; binding and its absence hold for the method and conditions named. Some entries that bind do so weakly or less than the wild type. Where a sequence is shown, tags or fusion partners need not be part of it.
Target: T1, Recombinant human SPARC (secreted protein acidic and rich in cysteine), histidine-tagged (human) (UniProt P09486)
T1 sequence: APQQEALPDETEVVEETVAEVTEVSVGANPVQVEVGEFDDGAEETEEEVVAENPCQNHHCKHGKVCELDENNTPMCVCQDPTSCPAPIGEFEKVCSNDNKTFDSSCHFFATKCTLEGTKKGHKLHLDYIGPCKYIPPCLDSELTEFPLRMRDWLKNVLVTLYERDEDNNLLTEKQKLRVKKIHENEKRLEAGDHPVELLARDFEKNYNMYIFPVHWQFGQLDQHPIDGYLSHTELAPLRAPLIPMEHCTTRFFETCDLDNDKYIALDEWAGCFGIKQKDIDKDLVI
Test: SPR; data not shown; SPARC immobilised on Sensor NTA chip; human serum albumin as analyte, room temperature, 20 ul/minute; both purified

By UniProt entry, the sequences of proteins in these tests, tags left out. Residues count along the entry.
UniProt P02768, residues 25-609: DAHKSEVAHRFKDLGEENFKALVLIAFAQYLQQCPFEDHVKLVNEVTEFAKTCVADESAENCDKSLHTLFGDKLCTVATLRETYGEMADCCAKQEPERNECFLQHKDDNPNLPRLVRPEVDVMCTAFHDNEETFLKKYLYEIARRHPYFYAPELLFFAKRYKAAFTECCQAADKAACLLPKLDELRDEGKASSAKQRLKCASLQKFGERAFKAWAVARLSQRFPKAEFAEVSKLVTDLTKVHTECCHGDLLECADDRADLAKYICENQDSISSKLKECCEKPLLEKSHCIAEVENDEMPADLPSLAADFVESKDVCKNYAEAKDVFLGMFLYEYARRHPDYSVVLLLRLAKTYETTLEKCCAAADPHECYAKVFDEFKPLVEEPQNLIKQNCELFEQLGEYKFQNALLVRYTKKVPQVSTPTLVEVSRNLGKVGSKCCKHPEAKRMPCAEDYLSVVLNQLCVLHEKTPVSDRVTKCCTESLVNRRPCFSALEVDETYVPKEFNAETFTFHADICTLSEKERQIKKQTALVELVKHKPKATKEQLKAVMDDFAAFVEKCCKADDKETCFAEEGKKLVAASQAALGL

binding: binds
Substance: Human serum albumin (from UniProt P02768 25-609)

Source: PMC5363614, “Secreted protein acidic and rich in cysteine (SPARC) induces lipotoxicity in neuroblastoma by regulating transport of albumin complexed with fatty acids” (Oncotarget, 2016)
